# Data taken from PubChem BioAssay AID504834 (National Center for Advancing Translational Sciences (NCATS), 2011).
# The campaign covered roughly 320,000 compounds. About 22,000 (6.9%) were called active. The inconclusive results got no clear call from the source; some entries with a clear call stand among them for comparison. Calls come from the whole dose curve; as a rule, active = well fitted inhibition curve with a large enough effect; inconclusive = small, poorly fitted or top-dose-only effect, or another doubt; inactive = no such curve, though single readings can be large or run the other way. Potencies of inconclusive entries are doubtful fits and often do not repeat.
# Assay: Primary qHTS for delayed death inhibitors of the malarial parasite plastid, 96 hour incubation
# Conditions: P. falciparum luciferase reporter growth; series mostly up to 28.7 µM
# Method in brief: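 Delayed-death screen, second-generation endpoint: infected erythrocytes, 2% hematocrit, 0.05% parasitemia final; 96 hours at 37 C, 5% CO2; luciferase detection reagent; luminescence decrease equals reduced growth.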
# Potency is the fitted concentration of half-maximal effect.
row,SMILES,Potency
1,CCOC(=O)C1CCN(Cc2nnc(-c3cccc(Br)c3)o2)CC1,inactive
2,C/C(=N\N1CCCCC1c1cccnc1)c1c(O)n(C2CCCCC2)c(=S)[nH]c1=O (centres undefined),active: 3.29 µM
3,COc1cc(/C=C(/C(=O)c2cccs2)c2nc3ccccc3[nH]2)ccc1O,active: 1.17 µM
4,C=CCNC(=O)C1CC(=O)N(c2ccc(OCc3ccc(F)cc3)cc2)C1 (centres undefined),active: 11.7 µM
5,O=C(Oc1c(-c2ccccc2)c(=O)n2c3c(cccc13)CC2)c1cccc([N+](=O)[O-])c1,inactive
6,CCn1c(COc2ccccc2C)nnc1SCC(=O)N1CCCCC1,active: 7.38 µM
7,CC(C)CCNC(=O)C1CCN(S(=O)(=O)c2ccc3c(c2)CC(C)N3C(=O)C2CC2)CC1 (centres undefined),inactive
8,O=C(NN1CCOCC1)c1cc(-c2cccc(Cl)c2)nc2ccccc12,inactive
9,Cc1ccc(-c2cc(C(=O)N/N=C/c3c(C)nn(C)c3C)c3ccccc3n2)cc1C,"inconclusive: 5.22 µM [inhibitor, partial curve, poor fit]"
10,C/C(=N\NC(=S)Nc1ccccc1C)c1ccc(O)cc1,"inconclusive: 18.5 µM [inhibitor, single point]"
11,C#CCOCCOCCOCCNc1nc(N2CCN(C(=O)CCCCCCCCCCNC(=O)[C@H](CCCCN)n3cc(CCO)nn3)CC2)nc(N2CCN(C(=O)CCCCCCCCCCNC(=O)[C@H](CCCCN)n3cc(C[C@@H](C)CC)nn3)CC2)n1,"inconclusive: 16.5 µM [inhibitor, partial curve, poor fit]"
12,CCCc1n[nH]c2c1C(=O)C(C(=O)OC)C(C)(C)C2 (centres undefined),"inconclusive: 18.5 µM [inhibitor, single point]"
13,O=C(Nc1ccc(Cl)cc1)N1CCCN(Cc2ccccc2F)C1,"inconclusive: 9.28 µM [inhibitor, single point]"
14,COc1ccc(C(=O)Nc2ccc(S(=O)(=O)Nc3onc(C)c3C)cc2)cc1,"inconclusive: 0.104 µM [inhibitor, full curve, poor fit]"
15,CCN(CC(=O)NCc1ccc(Cl)cc1)C(=O)C1CCN(S(=O)(=O)c2ccc(OC)c(OC)c2)CC1,inactive
16,O=C(CSc1nc2ncc(Cl)cc2[nH]1)NCCc1ccc(F)cc1,"inconclusive: 10.4 µM [inhibitor, single point]"
17,O=C(Nc1ccc(Cl)cc1)c1ccc(S(=O)(=O)N2CCOCC2)cc1,"inconclusive: 16.5 µM [inhibitor, single point]"
18,CCOc1ccc(N/C(C)=C/C(=O)c2ccc3c(c2)OCCO3)cc1,"inconclusive: 14.7 µM [inhibitor, single point]"
19,O=C(O)c1cccc2c1C(=O)N(CC1CCCO1)C2 (centres undefined),"inconclusive: 5.22 µM [inhibitor, partial curve]"
20,Cc1ccc(C)c(N(C(=O)CNC(=O)c2ccco2)C(C(=O)NC2CCCC2)c2ccncc2)c1 (centres undefined),"inconclusive: 9.28 µM [inhibitor, partial curve]"
21,O=S(=O)(c1ccc(Cl)cc1)N1CCN(C(=S)NCC2CCCO2)CC1 (centres undefined),inactive
22,Cc1ccc2c(c1)c1cccc3c1n2CCN3CCC(N)=O,"inconclusive: 5.22 µM [inhibitor, partial curve]"

row,SMILES,Potency
1,CC(=O)C1=C(O)C(=O)N(CCN2CCOCC2)C1c1ccccc1 (centres undefined),inactive
2,O=C(COC(=O)CCC1CCCC1)Nc1ccccc1Br,inactive
3,CC1(C)CC2CC(C)(CN2C(=S)NC(=O)c2ccccc2Cl)C1 (centres undefined),"inconclusive: 18.5 µM [inhibitor, single point]"
4,Cc1ccc(S(=O)(=O)N2CCN(C(=O)Cn3c(=O)cnc4ccccc43)CC2)cc1,"inconclusive: 18.5 µM [inhibitor, single point]"
5,CCOC(=O)N1CCC(NS(=O)(=O)c2ccc(C)c(Cl)c2)CC1,"inconclusive: 0.0033 µM [inhibitor, full curve, poor fit]"
6,CC(C)NS(=O)(=O)c1ccc(CCC(=O)Nc2ccc3c(c2)OCCO3)cc1,"inconclusive: 18.5 µM [inhibitor, single point]"
7,O=C(CCNC(=O)c1ccc(Cl)cc1)NCC(c1ccco1)N1CCCCC1 (centres undefined),active: 4.65 µM
8,Cc1nc2c3ccccc3nc(SCC(=O)c3ccc(Cl)cc3)n2n1,"inconclusive: 10.4 µM [inhibitor, single point]"
9,OCCC1CN(Cc2cnc(-c3ccc(Cl)cc3)nc2)CCN1C1CCCC1 (centres undefined),"inconclusive: 10.4 µM [inhibitor, single point]"
10,O=C(CNS(=O)(=O)c1ccc(Br)cc1)N1CCN(Cc2ccccc2)CC1,"inconclusive: 11.7 µM [inhibitor, partial curve, poor fit]"
11,COC(=O)Cn1c(=NC(=O)c2nc3ccccc3s2)sc2cc(S(C)(=O)=O)ccc21,inactive
12,CS(=O)(=O)c1ccc(-c2csc(N3CCC(C(N)=O)CC3)n2)cc1,inactive
13,Nc1n[nH]c2c1C1(CCCC1)Cc1ccccc1-2,"inconclusive: 9.28 µM [inhibitor, partial curve, poor fit]"
14,CCn1c(=O)cc(SCC(=O)NCC2CCCO2)c2ccccc21 (centres undefined),"inconclusive: 18.5 µM [inhibitor, single point]"
15,Cc1ccc(-c2nc(CS(=O)CC(=O)NCc3ccccc3)c(C)o2)cc1 (centres undefined),inactive
16,Fc1ccccc1Cc1noc(CN(Cc2ccccn2)CC2CCCO2)n1 (centres undefined),"inconclusive: 11.7 µM [inhibitor, single point]"
17,COC(OC)c1ccc(C#N)c(SCc2ccc(C)cc2)n1,"inconclusive: 10.4 µM [inhibitor, partial curve]"
18,CCN1CCN(C2CC(=O)NC2=O)CC1 (centres undefined),active: 8.28 µM
19,Nc1nc(SCC(=O)Nc2ccc(Cl)c([N+](=O)[O-])c2)n[nH]1,"inconclusive: 11.7 µM [inhibitor, partial curve]"
20,Cc1ccc2[nH]c(CNC(=O)c3ccccc3F)cc2c1,"inconclusive: 11.7 µM [inhibitor, single point]"
21,C/C(=N/NC(=O)c1ccc(Br)s1)c1cccnc1,active: 7.38 µM
22,Clc1ccc(OCc2nnc(-c3ccccc3Br)o2)c(Cl)c1,"inconclusive: 18.5 µM [inhibitor, single point]"

# 11 structures already listed, ordered by SMILES length, falling:
row,SMILES,Potency
6,CC(C)NS(=O)(=O)c1ccc(CCC(=O)Nc2ccc3c(c2)OCCO3)cc1,"inconclusive: 18.5 µM [inhibitor, single point]"
10,O=C(CNS(=O)(=O)c1ccc(Br)cc1)N1CCN(Cc2ccccc2)CC1,"inconclusive: 11.7 µM [inhibitor, partial curve, poor fit]"
15,Cc1ccc(-c2nc(CS(=O)CC(=O)NCc3ccccc3)c(C)o2)cc1 (centres undefined),inactive
7,O=C(CCNC(=O)c1ccc(Cl)cc1)NCC(c1ccco1)N1CCCCC1 (centres undefined),active: 4.65 µM
9,OCCC1CN(Cc2cnc(-c3ccc(Cl)cc3)nc2)CCN1C1CCCC1 (centres undefined),"inconclusive: 10.4 µM [inhibitor, single point]"
5,CCOC(=O)N1CCC(NS(=O)(=O)c2ccc(C)c(Cl)c2)CC1,"inconclusive: 0.0033 µM [inhibitor, full curve, poor fit]"
1,CC(=O)C1=C(O)C(=O)N(CCN2CCOCC2)C1c1ccccc1 (centres undefined),inactive
22,Clc1ccc(OCc2nnc(-c3ccccc3Br)o2)c(Cl)c1,"inconclusive: 18.5 µM [inhibitor, single point]"
20,Cc1ccc2[nH]c(CNC(=O)c3ccccc3F)cc2c1,"inconclusive: 11.7 µM [inhibitor, single point]"
2,O=C(COC(=O)CCC1CCCC1)Nc1ccccc1Br,inactive
18,CCN1CCN(C2CC(=O)NC2=O)CC1 (centres undefined),active: 8.28 µM
